These are yes or no findings as the source states them, for the method shown. In cells and extracts the contact can be indirect. A yes stands for co-enrichment or nearness to the bait. Other partners may have been found.
What follows are substances tested against T1, exogenous PORCN-WT of PORCN-WT HT1080 cells (bait of the mass spectrometry) (UniProt Q9H237) (assay: affinity purification with mass spectrometry; exogenous PORCN immunoprecipitated from PORCN-WT or PORCN-ΔNLS HT1080 cells before and after IR; RIPA lysate, protein A/G Sepharose, silver-stained SDS-PAGE, LC-MS/MS).
T1 sequence: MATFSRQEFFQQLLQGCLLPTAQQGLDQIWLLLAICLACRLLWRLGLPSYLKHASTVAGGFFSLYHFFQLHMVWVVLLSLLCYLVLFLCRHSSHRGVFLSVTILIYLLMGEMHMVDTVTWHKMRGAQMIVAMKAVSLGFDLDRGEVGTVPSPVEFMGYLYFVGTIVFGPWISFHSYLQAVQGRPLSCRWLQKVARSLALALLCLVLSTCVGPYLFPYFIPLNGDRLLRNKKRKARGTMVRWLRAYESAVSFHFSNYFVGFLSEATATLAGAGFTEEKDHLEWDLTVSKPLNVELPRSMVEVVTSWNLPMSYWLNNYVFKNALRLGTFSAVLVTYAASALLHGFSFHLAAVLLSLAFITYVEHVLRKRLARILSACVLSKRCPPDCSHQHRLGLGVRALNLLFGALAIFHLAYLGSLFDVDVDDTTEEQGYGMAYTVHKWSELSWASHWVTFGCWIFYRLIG

Amino acid sequences for entries named in this document (tags omitted).
UniProt P78527: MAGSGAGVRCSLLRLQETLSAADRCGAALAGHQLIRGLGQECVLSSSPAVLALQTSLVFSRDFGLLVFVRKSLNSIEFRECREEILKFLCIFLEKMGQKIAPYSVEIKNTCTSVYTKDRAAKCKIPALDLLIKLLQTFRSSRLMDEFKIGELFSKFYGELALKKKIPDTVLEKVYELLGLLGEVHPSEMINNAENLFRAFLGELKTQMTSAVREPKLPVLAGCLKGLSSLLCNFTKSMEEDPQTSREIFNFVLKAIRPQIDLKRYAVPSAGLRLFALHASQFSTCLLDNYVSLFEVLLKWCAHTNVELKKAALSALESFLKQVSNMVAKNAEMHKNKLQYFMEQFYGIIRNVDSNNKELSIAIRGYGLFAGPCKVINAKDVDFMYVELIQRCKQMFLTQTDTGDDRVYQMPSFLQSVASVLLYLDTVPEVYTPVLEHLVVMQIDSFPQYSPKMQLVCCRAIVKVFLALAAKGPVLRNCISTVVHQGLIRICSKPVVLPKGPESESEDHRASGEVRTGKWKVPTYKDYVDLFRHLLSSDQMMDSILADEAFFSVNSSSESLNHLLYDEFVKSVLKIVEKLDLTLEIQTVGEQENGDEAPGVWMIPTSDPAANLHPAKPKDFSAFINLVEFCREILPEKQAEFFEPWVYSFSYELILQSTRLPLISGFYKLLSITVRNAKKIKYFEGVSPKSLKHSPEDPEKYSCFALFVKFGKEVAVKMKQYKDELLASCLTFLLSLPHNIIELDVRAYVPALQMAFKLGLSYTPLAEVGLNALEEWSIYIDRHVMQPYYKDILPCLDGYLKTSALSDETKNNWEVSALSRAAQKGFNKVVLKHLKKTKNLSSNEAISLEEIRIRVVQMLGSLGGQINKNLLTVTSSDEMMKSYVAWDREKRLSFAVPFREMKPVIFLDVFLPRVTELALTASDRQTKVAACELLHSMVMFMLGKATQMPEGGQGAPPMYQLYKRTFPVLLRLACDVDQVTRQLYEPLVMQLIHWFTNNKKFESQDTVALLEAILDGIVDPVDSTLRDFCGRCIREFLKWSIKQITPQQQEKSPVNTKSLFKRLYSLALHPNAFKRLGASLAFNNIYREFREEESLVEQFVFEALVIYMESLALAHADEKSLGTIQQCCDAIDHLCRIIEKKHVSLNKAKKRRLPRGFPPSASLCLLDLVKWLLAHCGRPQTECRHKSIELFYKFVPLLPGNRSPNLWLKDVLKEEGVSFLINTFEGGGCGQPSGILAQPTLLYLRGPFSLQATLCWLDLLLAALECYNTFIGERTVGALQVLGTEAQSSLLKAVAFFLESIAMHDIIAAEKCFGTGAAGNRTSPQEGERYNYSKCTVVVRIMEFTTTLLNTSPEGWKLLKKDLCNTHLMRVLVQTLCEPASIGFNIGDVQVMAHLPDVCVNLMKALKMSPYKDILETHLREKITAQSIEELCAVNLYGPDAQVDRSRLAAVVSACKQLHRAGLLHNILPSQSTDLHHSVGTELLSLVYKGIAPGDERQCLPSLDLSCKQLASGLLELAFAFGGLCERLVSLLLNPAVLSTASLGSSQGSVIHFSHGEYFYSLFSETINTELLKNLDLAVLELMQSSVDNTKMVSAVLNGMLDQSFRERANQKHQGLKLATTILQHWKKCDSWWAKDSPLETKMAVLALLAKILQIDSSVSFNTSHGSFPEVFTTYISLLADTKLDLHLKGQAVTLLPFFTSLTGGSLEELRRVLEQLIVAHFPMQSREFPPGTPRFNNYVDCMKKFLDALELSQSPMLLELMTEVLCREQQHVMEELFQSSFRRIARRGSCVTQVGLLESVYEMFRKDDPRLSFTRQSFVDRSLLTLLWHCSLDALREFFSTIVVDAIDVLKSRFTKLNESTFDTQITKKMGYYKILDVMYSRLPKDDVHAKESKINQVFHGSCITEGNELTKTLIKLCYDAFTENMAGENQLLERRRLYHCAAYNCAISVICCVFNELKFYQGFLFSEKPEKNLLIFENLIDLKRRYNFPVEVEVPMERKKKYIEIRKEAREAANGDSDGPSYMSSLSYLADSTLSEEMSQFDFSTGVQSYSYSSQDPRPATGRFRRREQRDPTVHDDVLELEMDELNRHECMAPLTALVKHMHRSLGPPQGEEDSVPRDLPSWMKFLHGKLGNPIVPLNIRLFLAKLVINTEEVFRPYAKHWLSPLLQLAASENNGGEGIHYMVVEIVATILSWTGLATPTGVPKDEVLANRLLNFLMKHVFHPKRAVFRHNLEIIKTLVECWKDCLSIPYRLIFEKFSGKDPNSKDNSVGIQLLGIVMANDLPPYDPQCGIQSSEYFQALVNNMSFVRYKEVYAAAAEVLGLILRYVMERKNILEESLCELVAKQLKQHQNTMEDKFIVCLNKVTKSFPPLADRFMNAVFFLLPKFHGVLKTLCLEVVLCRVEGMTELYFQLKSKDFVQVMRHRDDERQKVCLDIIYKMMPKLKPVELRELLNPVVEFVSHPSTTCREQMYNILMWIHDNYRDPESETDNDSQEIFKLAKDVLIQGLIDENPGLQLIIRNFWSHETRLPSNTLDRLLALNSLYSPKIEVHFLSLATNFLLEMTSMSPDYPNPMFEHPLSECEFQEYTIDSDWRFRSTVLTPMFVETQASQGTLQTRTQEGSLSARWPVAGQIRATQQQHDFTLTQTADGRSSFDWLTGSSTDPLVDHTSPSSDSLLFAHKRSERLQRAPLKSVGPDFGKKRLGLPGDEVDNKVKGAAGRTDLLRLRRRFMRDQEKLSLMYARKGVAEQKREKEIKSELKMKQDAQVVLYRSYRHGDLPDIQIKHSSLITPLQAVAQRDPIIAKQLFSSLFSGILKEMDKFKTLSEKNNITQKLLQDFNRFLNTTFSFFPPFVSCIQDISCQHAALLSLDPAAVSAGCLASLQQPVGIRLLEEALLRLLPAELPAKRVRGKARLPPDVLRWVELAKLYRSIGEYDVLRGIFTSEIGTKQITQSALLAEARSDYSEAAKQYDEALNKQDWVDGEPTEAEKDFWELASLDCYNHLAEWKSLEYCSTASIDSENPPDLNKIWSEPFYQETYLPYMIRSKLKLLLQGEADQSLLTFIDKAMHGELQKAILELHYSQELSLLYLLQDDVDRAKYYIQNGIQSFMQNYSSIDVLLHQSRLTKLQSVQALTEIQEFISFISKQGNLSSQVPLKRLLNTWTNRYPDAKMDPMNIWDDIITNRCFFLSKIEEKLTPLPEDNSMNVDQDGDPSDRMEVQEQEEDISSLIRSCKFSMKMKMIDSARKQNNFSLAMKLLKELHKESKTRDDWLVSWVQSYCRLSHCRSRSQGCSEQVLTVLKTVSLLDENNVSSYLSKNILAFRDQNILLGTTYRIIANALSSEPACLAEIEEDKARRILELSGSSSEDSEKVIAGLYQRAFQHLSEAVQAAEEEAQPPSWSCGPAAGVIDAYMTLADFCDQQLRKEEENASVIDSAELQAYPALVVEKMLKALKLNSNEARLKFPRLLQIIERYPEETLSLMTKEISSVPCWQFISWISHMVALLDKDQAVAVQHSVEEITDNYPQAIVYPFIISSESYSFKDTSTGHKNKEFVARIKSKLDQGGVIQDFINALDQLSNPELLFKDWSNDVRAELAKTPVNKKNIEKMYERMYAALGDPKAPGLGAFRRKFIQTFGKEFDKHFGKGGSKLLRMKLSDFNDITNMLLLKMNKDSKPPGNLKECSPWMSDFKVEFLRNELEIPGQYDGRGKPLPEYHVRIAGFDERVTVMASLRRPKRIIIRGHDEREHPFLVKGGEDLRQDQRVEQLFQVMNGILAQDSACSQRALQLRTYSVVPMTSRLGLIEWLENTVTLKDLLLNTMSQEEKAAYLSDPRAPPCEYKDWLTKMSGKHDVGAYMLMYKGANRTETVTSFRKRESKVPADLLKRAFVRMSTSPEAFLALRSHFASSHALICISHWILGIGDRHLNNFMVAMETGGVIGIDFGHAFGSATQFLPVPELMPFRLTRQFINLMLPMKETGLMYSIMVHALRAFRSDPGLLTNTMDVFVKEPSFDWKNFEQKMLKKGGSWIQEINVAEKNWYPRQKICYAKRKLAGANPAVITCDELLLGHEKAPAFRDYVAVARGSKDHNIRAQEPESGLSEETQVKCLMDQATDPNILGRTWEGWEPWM
UniProt P35222: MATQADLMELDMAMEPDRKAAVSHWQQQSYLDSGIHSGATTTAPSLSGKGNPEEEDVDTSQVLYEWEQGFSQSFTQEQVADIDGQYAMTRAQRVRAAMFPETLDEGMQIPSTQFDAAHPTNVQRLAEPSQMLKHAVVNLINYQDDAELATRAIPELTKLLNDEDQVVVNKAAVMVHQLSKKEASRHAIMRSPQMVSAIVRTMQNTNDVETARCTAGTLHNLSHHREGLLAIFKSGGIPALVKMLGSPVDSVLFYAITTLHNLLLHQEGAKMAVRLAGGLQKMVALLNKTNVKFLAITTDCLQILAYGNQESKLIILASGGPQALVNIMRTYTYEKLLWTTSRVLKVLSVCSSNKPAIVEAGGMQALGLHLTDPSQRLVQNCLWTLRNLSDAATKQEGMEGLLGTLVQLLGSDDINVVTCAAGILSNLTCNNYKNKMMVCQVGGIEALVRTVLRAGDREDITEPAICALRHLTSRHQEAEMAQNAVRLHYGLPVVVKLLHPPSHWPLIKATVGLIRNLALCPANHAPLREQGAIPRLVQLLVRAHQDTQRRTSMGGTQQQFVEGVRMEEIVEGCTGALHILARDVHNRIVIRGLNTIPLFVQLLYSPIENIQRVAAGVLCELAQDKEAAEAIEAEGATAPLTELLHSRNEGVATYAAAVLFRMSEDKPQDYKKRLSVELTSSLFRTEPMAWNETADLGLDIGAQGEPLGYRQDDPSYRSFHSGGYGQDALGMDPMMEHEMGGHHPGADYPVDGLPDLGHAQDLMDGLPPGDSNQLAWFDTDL
UniProt P13010: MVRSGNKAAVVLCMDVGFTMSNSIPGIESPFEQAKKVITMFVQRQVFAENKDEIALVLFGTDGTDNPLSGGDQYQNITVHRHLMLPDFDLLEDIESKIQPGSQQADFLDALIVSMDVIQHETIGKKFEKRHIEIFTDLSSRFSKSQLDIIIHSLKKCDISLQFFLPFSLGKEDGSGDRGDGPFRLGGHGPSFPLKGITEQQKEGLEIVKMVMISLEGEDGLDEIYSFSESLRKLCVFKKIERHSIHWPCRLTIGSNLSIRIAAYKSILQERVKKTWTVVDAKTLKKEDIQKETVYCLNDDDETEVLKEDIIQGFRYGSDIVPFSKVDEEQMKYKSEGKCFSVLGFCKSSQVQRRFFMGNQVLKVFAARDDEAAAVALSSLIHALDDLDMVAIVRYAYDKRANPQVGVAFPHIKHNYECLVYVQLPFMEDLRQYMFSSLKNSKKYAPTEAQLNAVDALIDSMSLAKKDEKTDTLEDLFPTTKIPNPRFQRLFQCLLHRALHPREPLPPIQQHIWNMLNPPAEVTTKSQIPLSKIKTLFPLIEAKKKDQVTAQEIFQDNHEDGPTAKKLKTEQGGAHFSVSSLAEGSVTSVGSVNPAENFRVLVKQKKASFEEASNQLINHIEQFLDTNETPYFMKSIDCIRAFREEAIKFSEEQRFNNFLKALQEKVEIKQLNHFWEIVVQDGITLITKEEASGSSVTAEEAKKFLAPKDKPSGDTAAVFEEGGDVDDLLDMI

| Substance | binding |
| --- | --- |
| DNA-dependent protein kinase catalytic subunit (DNA-PKcs), endogenous (from UniProt P78527 1-4128) (enzyme) | binds |
| β-catenin, endogenous (from UniProt P35222 1-781) | binds |
| Ku80 (XRCC5), endogenous (from UniProt P13010 1-732) | binds |
| Ku70 (XRCC6), endogenous (from UniProt P12956 1-609) | binds |

From article PMC11536954
